SMILES strings stand for the structures. Some of the results follow. The main result of the screen is listed elsewhere. These columns were measured beside it and carry no call. For some assays here: Most of these compounds were active or inconclusive in the main read-out, so they are no random draw.

The nature of one assay: PubChem AID 1586. As to conditions: yeast two-hybrid polyglutamine protein interaction, reporter readout; measured here: averaged growth delta OD.
Assay [1] in a line: enhancers of SMN2 over SMN1 splicing, cell-based, SMN2/SMN1 luciferase reporters (AID 1598). The settings on record: SMN2 vs SMN1 luciferase splicing reporter cells, at 10 µM; SMN1 luciferase ratio: measured here: SMN1 luciferase reporter average; SMN2 luciferase ratio: measured here: SMN2 luciferase reporter average, stronger effect = higher value. (In general: A reporter such as luciferase makes a cellular process visible.)

A short description of assay [2]: protection against mutant huntingtin cytotoxicity, PC12 cells, LDH release (AID 1610). The settings on record: PC12 mutant huntingtin toxicity, final LDH at 4 uM, stronger effect = lower value. (In general: LDH in the medium is a marker of cell lysis.)

In turn, `CN1C2CCC1CC(OC(c1ccccc1)c1ccccc1)C2` (centres undefined) returned a signal change (36 h minus 0 h) in the assay “PubChem AID 1586” of 0.101. Besides, in assay [1], the SMN1 luciferase ratio is 0.82 and the SMN2 luciferase ratio stood at 0.85. In addition, the normalised LDH release in assay [2] was 0.777.
The matching figures for `CN(C)CC/C=C1\c2ccccc2Sc2ccc(Cl)cc21`: 0.102, 0.83, 1 and 0.879.
The corresponding values for `CO[C@@H]1[C@@H](O[C@@H]2O[C@H](C)[C@@H](O[C@H]3C[C@@](C)(O)[C@H](O)[C@H](C)O3)[C@H](N(C)C)[C@H]2O)[C@@H](CC=O)C[C@@H](C)[C@@H](O[C@H]2CC[C@H](N(C)C)[C@@H](C)O2)/C=C/C=C/C[C@H](C)OC(=O)C[C@H]1O` are 0.112, 0.95, 0.9 and 0.725.
The corresponding values for `O=C(O)CCC(=O)Nc1ccc(S(=O)(=O)Nc2nccs2)cc1` are 0.321, 0.92, 1.02 and 1.04.
Molecule `CCCCCCCCCCCCC[N+](C)(C)Cc1ccccc1` displayed a signal change (36 h minus 0 h) in the assay “PubChem AID 1586” of 0.129. For the same molecule, in assay [1], the SMN1 luciferase ratio is 0.32 and the SMN2 luciferase ratio came to 0.37. In addition, in assay [2], the normalised LDH release was found to be 0.616.
The corresponding values for `CN(C)CCC(c1ccc(Cl)cc1)c1ccccn1` (centres undefined) are 0.0784, 0.89, 0.92 and 1.18.
The corresponding values for `CC(=O)[C@@]1(O)CCC2C3C=C(Cl)C4=CC(=O)[C@@H]5CC5[C@]4(C)C3CC[C@@]21C` (some centres undefined) are 0.176, 0.96, 1.01 and 1.07.
The matching figures for `NC(=O)N1c2ccccc2C=Cc2ccccc21`: 0.0664, 0.81, 0.87 and 0.87.
In the assay “PubChem AID 1586”, `CCOC(=O)CCCCCCCCCCCCC1C=CCC1` (centres undefined) came in with a signal change (36 h minus 0 h) of 0.146. In assay [1], the SMN1 luciferase ratio was found to be 0.95 and the SMN2 luciferase ratio is 1.01. The same molecule returned a normalised LDH release in assay [2] of 0.511.
The corresponding values for `C[C@]12CCC(=O)C=C1CCC1C2[C@@H](O)C[C@@]2(C)C1CC[C@]2(O)C(=O)COC(=O)CCC(=O)O` (some centres undefined) are 0.154, 0.88, 0.88 and 0.554.
The matching figures for `CCCc1cc(=O)[nH]c(=S)[nH]1`: 0.0646, 0.87, 0.88 and 0.848.

The values are drawn from PubChem BioAssay.
